# In all, about 140,000 compounds went through this assay and about 4,300 (3.1%) were called active. This list was built around the results that the source calls inconclusive (neither active nor inactive); the mix of calls is not that of the screen.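 How the source made its calls: active means readout at or below -70, meaning at least 70% loss of cells showing the perinucleolar compartment, a nuclear body marking cancer cells; inconclusive means readout between -30 and a set limit; inactive means the rest.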
# Assay: High Content Assay for Compounds that inhibit the Assembly of the Perinucleolar Compartment;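 further: plate controls were DMSO wells for no effect and camptothecin positive control wells for full effect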
# Conditions: PC3M PTB-GFP, PNC prevalence imaging, 16 h; at 10 µM; active compounds read low
# Method in brief: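 Compounds are pinned in duplicate onto adhered PC3M cells stably expressing GFP-tagged PTB and incubated 16 h at 37 C. Cells are then fixed, nuclei stained with Hoechst, and PNC-positive cells counted.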
row,SMILES,"activity change (PNC), negative = inhibition"
1,Cc1cccc(N/C=C/C(=C(C#N)C#N)N(C)C)c1,inconclusive: -60.6%
2,Cn1c(=O)c2c(nc(SCCCO)n2Cc2ccccc2Cl)n(C)c1=O,inactive: -0.462%
3,Cc1ccc(OCCOCCN(C)C)c(Cl)c1,active: -95.9%
4,Cc1nc2nc(NCc3cccs3)nn2c(C)c1Cl,inconclusive: -34.7%
5,CO/C=C\C=C/c1nnn(-c2ccc(Cl)cc2)n1,active: -94.4%
6,CC(C)Oc1ccc(/C(O)=C2/C(=O)C(=O)N(CCN(C)C)C2c2cccs2)cc1 (stereo unspecified),inconclusive: -30.9%
7,O=C(Cn1c(=O)c2sccc2n(Cc2cccc([N+](=O)[O-])c2)c1=O)NCCc1ccccc1,inconclusive: -31.6%
8,CC1(C)NC(=O)N(CC(O)COc2cccc(F)c2)C1=O (stereo unspecified),inconclusive: -34.2%
9,Cc1cc(S(=O)(=O)Nc2cc(C)c(O)c(C)c2)c(C)s1,inconclusive: -43.5%
10,Cc1csc(SCC(=O)N2CCN(S(=O)(=O)c3ccccc3)CC2)n1,inconclusive: -30.2%
11,CCOC(=O)Cn1c(=O)oc2cc(S(=O)(=O)Nc3cc(Cl)ccc3OC)ccc21,active: -97.2%
12,CCN(CC)C(=O)c1sc(N)c(C#N)c1C,active: -94.9%
13,CCCOC1(NC(=O)c2ccccc2)C(C)=CC(=O)C=C1C,inactive: 30.7%
14,CC1CCN(C(=S)c2ccc(O)cc2)CC1,inactive: -1.05%
15,COCCN(CC(=O)NCC1CCCO1)C(=O)CCC(=O)Nc1cc(C)on1 (stereo unspecified),inconclusive: -62.7%
16,O=C(O)c1[nH]nc2c1COc1ccccc1-2,inconclusive: -41.7%
17,CCOC(=O)c1ccccc1NC(=O)CSc1nc(N)cc(N)n1,inactive: 2.51%
18,O=C(Cc1nc2ccccc2s1)c1ccc(O)cc1O,inconclusive: -30.1%
19,C=CCC1CCCCC12NC(=O)NC2=O (stereo unspecified),inconclusive: -50.2%
20,COC(=O)N/N=C/c1cn(CCCOc2ccccc2)c2ccccc12,inactive: 105%
21,O=C(NCc1ccc2c(c1)OCO2)c1ccc(N2C(=O)C3CCCCC3C2=O)cc1 (stereo unspecified),inconclusive: -69%
22,CN(C)CCNC(=O)c1ccccc1,inactive: 20.4%
23,CN(C)C(=C(C#N)C#N)N1CCN(c2ccc(Cl)c(Cl)c2)CC1,inactive: 49%

row,SMILES,"activity change (PNC), negative = inhibition"
1,CCN1CCN(C(=S)c2ccc([N+](=O)[O-])cc2)CC1,inactive: 11.1%
2,CC(C)CCN=Cc1c(O)n(-c2ccccc2)c(=O)c2ccccc12,inconclusive: -63.6%
3,N#C/C(C(N)=O)=C1/CCc2ccccc2N1,inconclusive: -76.2%
4,CC1=C(C(=O)OC(C)C)C(c2cccc([N+](=O)[O-])c2)n2c(cc(=O)[nH]c2=S)N1 (stereo unspecified),inconclusive: -33.3%
5,CCSc1nnc(NC(=O)C(C)(C)C)s1,inactive: -22.7%
6,COc1ccc(CCNC(=O)[C@@H]2C[C@H]2c2ccccc2)cc1OC,inconclusive: -43.4%
7,FC(F)(F)c1cc(-c2ccco2)nc(-n2cnc3ccccc32)n1,inactive: 34.1%
8,Cn1c(C(=O)NCc2ccccc2)cc2oc3ccccc3c21,active: -106%
9,CCOC(=O)c1ccc(NC(=O)c2ccc(NS(C)(=O)=O)cc2)cc1,inconclusive: -33.7%
10,COc1ccc(NC(=S)NCC2CCN(c3ccc(OC)cc3)C2)cc1 (stereo unspecified),active: -116%
11,O=C(NCc1ccco1)c1cnn2c1NC(c1ccc(Br)cc1)CC2C(F)(F)F (stereo unspecified),inactive: -5.58%
12,O=C(NN=C1CCCCC1)c1ccccc1OCc1ccc(F)cc1,inactive: 6.37%
13,CN(c1ccccc1C(=O)NCC1CCCO1)S(C)(=O)=O (stereo unspecified),inconclusive: -66.4%
14,CC(NC(=O)CSc1nc2sc3c(c2c(=O)n1-c1ccccc1)CCCC3)c1ccccc1 (stereo unspecified),inconclusive: -53.7%
15,CCCOC(=S)NC(=O)c1sc2ccccc2c1Cl,inconclusive: -51.5%
16,CN(C)c1ccc(N=c2sc3ccccc3n2C)cc1,inactive: 28.1%
17,O=C(C1=COCCO1)N1CCN(C(c2ccccc2)c2ccccc2)CC1,inactive: 14%
18,COc1c(C)cccc1C(=O)Nc1ccc(N2CCN(S(C)(=O)=O)CC2)cc1,inconclusive: -31.8%
19,Cc1cc(C)nc(SCc2nnc(SCC(=O)Nc3nccs3)n2C)n1,active: -100%
20,CCN(CC)CCNC1=NCCn2c1cc1cc(OC)ccc12,inconclusive: -36.1%
21,CNc1nnc(-c2cc3cc(Cl)ccc3oc2=O)s1,inconclusive: -37.8%
22,Nc1ccc2c(c1)C(=O)C(=O)c1ccccc1-2,active: -81.1%
23,Cn1c(SCC(=O)N2CCN(S(=O)(=O)c3ccccc3)CC2)nc2ccccc21,inactive: 19.9%

# Filtered by structure, the compounds so far with a cyano group
row,SMILES,"activity change (PNC), negative = inhibition"
1,Cc1cccc(N/C=C/C(=C(C#N)C#N)N(C)C)c1,inconclusive: -60.6%
12,CCN(CC)C(=O)c1sc(N)c(C#N)c1C,active: -94.9%
23,CN(C)C(=C(C#N)C#N)N1CCN(c2ccc(Cl)c(Cl)c2)CC1,inactive: 49%
3,N#C/C(C(N)=O)=C1/CCc2ccccc2N1,inconclusive: -76.2%

# — PubChem BioAssay AID2417 (National Center for Advancing Translational Sciences (NCATS), 2010)
